In PubChem BioAssay AID1487 (National Center for Advancing Translational Sciences (NCATS), 2009):
Some of the results follow. Shown are side measurements of this screen, not its main read-out; they come without a call. Compounds called inactive in the main read-out are mostly missing here. Words in brackets tell the shape of the fitted curve; partial curves, single points and poor fits give uncertain potencies.

Assay: qHTS Assay for Modulators of Lamin A Splicing
Conditions: HeLa LMNA splicing GFP/RFP minigene ratio, 48 h
Procedure, shortened: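 S3 HeLa stable clones carrying a lamin A-EGFP splicing minigene plus DsRed2 were seeded at 600 cells/well in Opti-MEM with 2% FBS, pin-dosed and incubated 48 h at 37°C. Acumen cytometry (488 nm) gave the GFP/RFP total-intensity ratio.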

[1] = measured here: GFP splicing reporter channel
[2] = measured here: RFP viability control channel

Compound | AC50 [1] | AC50 [2]
CC(C)N1CSC(=S)N(Cc2ccccc2)C1 | 0.501 µM [falling, partial curve] | 
O=C(/C=C/c1ccccc1)Nn1c(-c2cccs2)nc2ccccc2c1=O |  | 2.82 µM [rising, full curve, poor fit]
COc1ccc(N2CCN(C(CNC(=O)c3ccc(C)cc3)c3ccc4c(c3)OCO4)CC2)cc1 (centres undefined) | 20 µM [falling, partial curve] | 22.4 µM [falling, partial curve, poor fit]
Cc1cccc(C(=O)Nc2ccccc2SCC(=O)Nc2ccc(C)c(Cl)c2)c1 | 35.5 µM [rising, single point] | 20 µM [rising, single point]
O=C(CCn1c(SCC(=O)c2ccccc2)nc2ccccc2c1=O)NCc1ccc(F)cc1 | 2.82 µM [falling, partial curve] | 3.16 µM [falling, partial curve]
CN1C(=O)NC(c2ccccc2)(C(F)(F)F)S/C1=C(/C#N)c1nnc(N2CCOCC2)n1-c1ccccc1 (centres undefined) |  | 12.6 µM [rising, partial curve, poor fit]
Cc1ccc2nc(CSc3nnc4ccccn34)cc(=O)n2c1 | 0.631 µM [rising, partial curve] | 
COc1ccc(CCCC(=O)O)c(C)c1 | 14.1 µM [falling, single point] | 
Oc1ccc(-c2csc(-c3ccccc3)n2)cc1O |  | 31.6 µM [rising, single point]
CC(C)c1ccc(S(=O)(=O)N2CCN(C(=O)c3ccco3)CC2)cc1 | 0.794 µM [falling, partial curve, poor fit] | 1.41 µM [falling, full curve, poor fit]
COc1ccc2nc(Nc3nc(C)c(C(C)=O)s3)sc2c1 | 5.62 µM [rising, full curve] | 6.31 µM [rising, full curve]
Cc1cc(NC(=O)Nc2cccc(C(F)(F)F)c2)no1 | 20 µM [rising, partial curve] | 35.5 µM [rising, single point]
CC(C)=CCOc1ccc(/C=C/C(=O)c2ccc(OCC=C(C)C)cc2OCC(=O)O)cc1 | 10 µM [falling, partial curve, poor fit] | 
COc1ccc(S(=O)(=O)Nc2cc(C(=O)NC3CCCCCC3)ccc2N2CCOCC2)cc1 | 35.5 µM [rising, single point] | 15.8 µM [rising, single point]
O=[N+]([O-])c1cccc(-n2cccc2/C=N/Nc2nc(N3CCCCC3)nc(N3CCCCC3)n2)c1 |  | 0.708 µM [falling, full curve]
N/C(=N\OC(=O)c1ccc(Br)cc1)c1ccncc1 |  | 35.5 µM [rising, partial curve, poor fit]
CC(C)Cc1nc2oc3c(=O)[nH]cnc3c2c2c1CCC2 | 10 µM [rising, partial curve, poor fit] | 
O=C(CSc1ncn[nH]1)Nc1ccc2c(c1)CCC2 | 6.31 µM [rising, partial curve, poor fit] | 35.5 µM [rising, single point]
O=C(/C=C/c1ccccc1)NC(=S)Nc1ccc(CN2CCOCC2)cc1 |  | 14.1 µM [rising, partial curve]

Three entries from above, set out differently:
Compound	AC50 [1]	AC50 [2]
CC(C)=CCOc1ccc(/C=C/C(=O)c2ccc(OCC=C(C)C)cc2OCC(=O)O)cc1	10 µM [falling, partial curve, poor fit]	
COc1ccc(S(=O)(=O)Nc2cc(C(=O)NC3CCCCCC3)ccc2N2CCOCC2)cc1	35.5 µM [rising, single point]	15.8 µM [rising, single point]
O=[N+]([O-])c1cccc(-n2cccc2/C=N/Nc2nc(N3CCCCC3)nc(N3CCCCC3)n2)c1		0.708 µM [falling, full curve]

(further entries)

Compound | AC50 [1] | AC50 [2]
O=C(CSCc1nc2cccnc2n1C1CCCCC1)NCc1cccc(Br)c1 | 0.0355 µM [rising, full curve, poor fit] | 0.224 µM [rising, full curve, poor fit]
CC(C)(C)C(=O)NCCc1nc2ccccc2n1CC(=O)c1ccc(Cl)cc1 |  | 11.2 µM [rising, single point]
Cc1ccc2scc(N3CCN(c4ccccc4)CC3)c(=O)c2c1 |  | 20 µM [rising, single point]
CCOCCCNC(=O)c1cc(Sc2ccc(F)cc2)nc2ccccc12 |  | 35.5 µM [rising, single point]
CS(=O)(=O)c1nc(-c2ccco2)cc(C(F)(F)F)n1 | 11.2 µM [rising, single point] | 
N/C(=N\c1nc2c(c(=O)[nH]1)CCC2)Nc1cccc(Cl)c1 |  | 31.6 µM [rising, single point]
CC(=O)Nc1ccccc1C(=O)N1CCN(c2cccc(C)c2C)CC1 | 2.82 µM [falling, partial curve, poor fit] | 
CCOCCCNC(=O)CN1C(=O)CSc2ccccc21 |  | 3.16 µM [rising, single point]
COc1ccc(-n2nc(C)cc2N)cc1 |  | 11.2 µM [falling, partial curve, poor fit]
N#CC1=C(SCC(=O)Nc2cccc3cccnc23)NC(=O)C(C#N)C12CCCCC2 (centres undefined) |  | 28.2 µM [rising, single point]
CCc1ccc(NC(=O)c2c(Cl)nc(C)c(Cl)c2C)cc1 |  | 35.5 µM [rising, single point]
COc1cc(Cl)c(NS(=O)(=O)c2ccc3[nH]c(=O)ccc3c2)c(OC)c1 |  | 0.0224 µM [falling, full curve, poor fit]
CCCCC(=O)NC1(C(F)(F)F)C(=O)Nc2c1c(=O)[nH]c(=O)n2-c1ccc(F)cc1 (centres undefined) | 5.62 µM [rising, single point] | 
Cc1ccc(-c2nnc(N3CCN(C(=O)c4ccco4)CC3)c3ccccc23)cc1 | 35.5 µM [rising, single point] | 35.5 µM [rising, single point]
O=C(O)C1CC=CCC1C(=O)NNc1ccccc1 (centres undefined) | 0.00447 µM [rising, full curve, poor fit] | 
Cc1cccc(NC(=S)NNC(=S)NCc2ccccc2)c1 | 35.5 µM [rising, single point] | 17.8 µM [rising, single point]
Cc1cccc(N=Nc2c(C)c(C#N)c(O)[nH]c2=O)c1 |  | 0.355 µM [rising, full curve, poor fit]
Cc1ccc2c(Cl)cc(Cl)c(OCC(=O)Nc3cccc(S(N)(=O)=O)c3)c2n1 | 2.82 µM [rising, partial curve] | 6.31 µM [rising, single point]
